# Laboratory results as given in the supplement of paper PMC9433722.
# Where a name gives a salt, the structure may show the parent alone. This is one part of the list. Most values come without repeats; read them as rough.
# How the values were obtained:
# Saos-2 = assay: cell viability (CCK-8) relative to DMSO control (% of control); higher = less cytotoxic; conditions: 10 µM; 48 h
# U2OS = assay: as above; conditions: 10 µM; 48 h
SMILES,cell viability (Saos-2),cell viability (U2OS)
CCCCc1nc(Cl)c(CO)n1Cc1ccc(-c2ccccc2-c2nnn[nH]2)cc1 [Losartan Potassium],69.6,53.8
O=C(O)Cc1ccccc1Nc1c(Cl)cccc1Cl [Diclofenac sodium salt],70,95.6
O=NN(CCCl)C(=O)NC1CCCCC1 [Lomustine],59.4,126
OCCN1CCN(CCCN2c3ccccc3Sc3ccc(C(F)(F)F)cc32)CC1 [Fluphenazine dihydrochloride],52.6,95.3
C[N+](C)(C)CCOC(=O)CCC(=O)OCC[N+](C)(C)C [Succinylcholine Chloride·2H2O],73,115
N=C(N)c1ccc(OCCCCCOc2ccc(C(=N)N)cc2)cc1 [Pentamidine Isethionate],90.9,128
NCC[C@H](O)C(=O)N[C@@H]1C[C@H](N)[C@@H](O[C@H]2O[C@H](CN)[C@@H](O)[C@H](O)[C@H]2O)[C@H](O)[C@H]1O[C@H]1O[C@H](CO)[C@@H](O)[C@H](N)[C@H]1O [Amikacin . disulfate],107,98.9
Cc1onc(-c2ccccc2Cl)c1C(=O)N[C@@H]1C(=O)N2[C@@H]1SC(C)(C)[C@@H]2C(=O)O [Cloxacillin·Na],107,88.8
O=C(O)c1cc(/N=N/c2ccc(S(=O)(=O)Nc3ccccn3)cc2)ccc1O [Sulfasalazine],69,112
Clc1ccc(C(c2ccccc2Cl)C(Cl)Cl)cc1 (stereo unspecified) [Mitotane],109,107
CCOC(=O)C1=C(C)NC(C)=C(C(=O)OC)C1c1cccc(Cl)c1Cl (stereo unspecified) [Felodipine],65.9,108
CC(C)[C@H](N)C(=O)OCC(CO)OCn1cnc2c(=O)[nH]c(N)nc21 (stereo partly specified) [Valganciclovir·HCl],133,81.4
O=C(O)CCCCCCCC(=O)O [Azelaic Acid],127,103
CCCNC(C)C(=O)Nc1c(C)csc1C(=O)OC (stereo unspecified) [Articaine·HCl],119,103
COCC1=C(C(=O)OC(C)OC(=O)OC(C)C)N2C(=O)[C@@H](NC(=O)/C(=N\OC)c3csc(N)n3)[C@H]2SC1 (stereo partly specified) [Cefpodoxime Proxetil],115,92.1
COc1c(C)c2c(c(O)c1C/C=C(\C)CCC(=O)O)C(=O)OC2 [Mycophenolic Acid],44.9,62.4
CN1CCN(CCCN2c3ccccc3Sc3ccc(C(F)(F)F)cc32)CC1 [Trifluoperazine . Dihydrochloride],54,106
CO[C@H]1C[C@@H]2CC[C@@H](C)[C@@](O)(O2)C(=O)C(=O)N2CCCC[C@H]2C(=O)O[C@H]([C@H](C)C[C@@H]2CC[C@@H](OCCO)[C@H](OC)C2)CC(=O)[C@H](C)/C=C(\C)[C@@H](O)[C@@H](OC)C(=O)[C@H](C)C[C@H](C)/C=C/C=C/C=C/1C [Everolimus],84.8,63.3
CN(C/C=C/C#CC(C)(C)C)Cc1cccc2ccccc12 [Terbinafine·HCl],60.9,118
CNCCCN1c2ccccc2CCc2ccccc21 [Desipramine·HCl],103,111
COc1ccc(CC2c3cc(OC)c(OC)cc3CC[N+]2(C)CCC(=O)OCCCCCOC(=O)CC[N+]2(C)CCc3cc(OC)c(OC)cc3C2Cc2ccc(OC)c(OC)c2)cc1OC (stereo unspecified) [Atracurium Besylate],62.8,104

# Reprinted at random: 6 records from the list, in no set order.
SMILES,cell viability (Saos-2),cell viability (U2OS)
NCC[C@H](O)C(=O)N[C@@H]1C[C@H](N)[C@@H](O[C@H]2O[C@H](CN)[C@@H](O)[C@H](O)[C@H]2O)[C@H](O)[C@H]1O[C@H]1O[C@H](CO)[C@@H](O)[C@H](N)[C@H]1O [Amikacin . disulfate],107,98.9
O=C(O)c1cc(/N=N/c2ccc(S(=O)(=O)Nc3ccccn3)cc2)ccc1O [Sulfasalazine],69,112
CCCCc1nc(Cl)c(CO)n1Cc1ccc(-c2ccccc2-c2nnn[nH]2)cc1 [Losartan Potassium],69.6,53.8
O=C(O)Cc1ccccc1Nc1c(Cl)cccc1Cl [Diclofenac sodium salt],70,95.6
CC(C)[C@H](N)C(=O)OCC(CO)OCn1cnc2c(=O)[nH]c(N)nc21 (stereo partly specified) [Valganciclovir·HCl],133,81.4
Cc1onc(-c2ccccc2Cl)c1C(=O)N[C@@H]1C(=O)N2[C@@H]1SC(C)(C)[C@@H]2C(=O)O [Cloxacillin·Na],107,88.8

# (list continues)

SMILES,cell viability (Saos-2),cell viability (U2OS)
CN(C)CCCN1c2ccccc2CCc2ccccc21 [Imipramine·HCl],60.7,113
CC1(C)NC(=O)N(c2ccc([N+](=O)[O-])c(C(F)(F)F)c2)C1=O [Nilutamide],112,98
Nc1nc2ccc(OC(F)(F)F)cc2s1 [Riluzole·HCl],60.3,107
C[C@@H](NCCCc1cccc(C(F)(F)F)c1)c1cccc2ccccc12 [Cinacalcet·HCl],69.2,86.2
CN(C)CCC=C1c2ccccc2CCc2ccccc21 [Amitriptyline·HCl],64.1,108
COc1ccc2c3c1O[C@H]1C[C@@H](O)C=C[C@@]31CCN(C)C2 [Galanthamine . hydrobromide],58.4,115
COc1nc(N)nc2c1ncn2[C@@H]1O[C@H](CO)[C@@H](O)[C@@H]1O [Nelarabine],104,109
CCN1CC(CCN2CCOCC2)C(c2ccccc2)(c2ccccc2)C1=O (stereo unspecified) [Doxapram·HCl H2O],117,105
CN(C)C(=O)C(CCN1CCC(O)(c2ccc(Cl)cc2)CC1)(c1ccccc1)c1ccccc1 [Loperamide . Hydrochloride],58.5,115
COc1cc([C@@H]2c3cc4c(cc3[C@@H](O[C@@H]3O[C@@H]5CO[C@@H](C)O[C@H]5[C@H](O)[C@H]3O)[C@H]3COC(=O)[C@H]23)OCO4)cc(OC)c1O [Etoposide],37.1,69
CC(C)Nc1cccnc1N1CCN(C(=O)c2cc3cc(NS(C)(=O)=O)ccc3[nH]2)CC1 [Delavirdine Mesylate],61.8,105
Cc1ccccc1C(=O)Nc1ccc(C(=O)N2CCCC(O)c3cc(Cl)ccc32)c(C)c1 (stereo unspecified) [Tolvaptan],110,92.2
CC(=O)OCC(=O)[C@@]1(O)CC[C@H]2[C@@H]3CCC4=CC(=O)CC[C@]4(C)[C@H]3C(=O)C[C@@]21C [Cortisone Acetate],109,86
CCOC(=O)C1=C[C@@H](OC(CC)CC)[C@H](NC(C)=O)[C@@H](N)C1 [Oseltamivir Phosphate],62.7,99.5
O=C(O)COCCN1CCN([C@H](c2ccccc2)c2ccc(Cl)cc2)CC1 [Levocetirizine Dihydrochloride],109,95
O=C1CCc2ccc(OCCCCN3CCN(c4cccc(Cl)c4Cl)CC3)cc2N1 [Aripiprazole],57.3,102
NS(=O)(=O)c1cc2c(cc1Cl)NCNS2(=O)=O [Hydrochlorothiazide],109,85.8
CC(=O)Oc1cc2c(s1)CCN(C(C(=O)C1CC1)c1ccccc1F)C2 (stereo unspecified) [Prasugrel],106,83.4
Cc1ncc([N+](=O)[O-])n1CCO [Metronidazole],73.9,101
CO[C@H]1O[C@@H]2O[C@@]3(C)CC[C@H]4[C@H](C)CC[C@@H]([C@H]1C)[C@@]24OO3 [Artemether],132,117
NS(=O)(=O)c1cc2c(cc1C(F)(F)F)NC(Cc1ccccc1)NS2(=O)=O (stereo unspecified) [Bendroflumethiazide],112,91.5

SMILES,cell viability (Saos-2),cell viability (U2OS)
O=C(CCCN1CC=C(n2c(=O)[nH]c3ccccc32)CC1)c1ccc(F)cc1 [Droperidol],119,69.7
Cc1ccc(C)c(OCCCC(C)(C)C(=O)O)c1 [Gemfibrozil],72.7,98.3
CSc1ccc2c(c1)N(CCC1CCCCN1C)c1ccccc1S2 (stereo unspecified) [Thioridazine·HCl],44.6,55
C#C[C@]1(O)CC[C@H]2[C@@H]3CCc4cc(O)ccc4[C@H]3CC[C@@]21C [17alpha-Ethynylestradiol],99.2,79.1
O=c1[nH]cc(F)c(=O)[nH]1 [5-Fluorouracil],56.2,77.6
Cn1c(=O)c2c(ncn2C)n(C)c1=O [Caffeine],63.1,103
CC(C)NCC(O)c1cc(O)cc(O)c1 (stereo unspecified) [Metaproterenol sulfate],96.9,91.2
COc1ccc2[nH]c([S@@+]([O-])Cc3ncc(C)c(OC)c3C)nc2c1 [Esomeprazole Potassium],74.1,107
C[C@H](Cn1cnc2c(N)ncnc21)OCP(=O)(O)O [Tenofovir Hydrate],103,90.9
CNS(=O)(=O)CCc1ccc2[nH]cc(C3CCN(C)CC3)c2c1 [Naratriptan·HCl],104,106
CC(C)(C)NC(=O)[C@@H]1CN(Cc2cccnc2)CCN1C[C@@H](O)C[C@@H](Cc1ccccc1)C(=O)N[C@H]1c2ccccc2C[C@H]1O [Indinavir],111,96.7
CCc1nc(N)nc(N)c1-c1ccc(Cl)cc1 [Pyrimethamine],73.2,78.5
CCS(=O)(=O)CCn1c([N+](=O)[O-])cnc1C [Tinidazole],66.8,108
NC(=O)c1cn(Cc2c(F)cccc2F)nn1 [Rufinamide],113,96.1
C#C[C@]1(O)CC[C@H]2[C@@H]3CCC4=CC(=O)CC[C@@H]4[C@H]3CC[C@@]21CC [Levonorgestrel],67.1,94.9
Cc1cn([C@H]2C=C[C@@H](CO)O2)c(=O)[nH]c1=O [Stavudine],106,107
CCOC(=O)O[C@]1(C(=O)OCCl)CC[C@H]2[C@@H]3CCC4=CC(=O)C=C[C@]4(C)[C@H]3[C@@H](O)C[C@@]21C [Loteprednol Etabonate],107,103
O=C(O)C1(C(=O)O)CCC1.[NH2-].[NH2-].[Pt+2] [Carboplatin],65.5,118
CC(C)(C)C(=O)OCOP(=O)(COCCn1cnc2c(N)ncnc21)OCOC(=O)C(C)(C)C [Adefovir Dipivoxil],89.6,77.5
CCCCCCCCCCC[C@@H](C[C@@H]1OC(=O)[C@H]1CCCCCC)OC(=O)[C@H](CC(C)C)NC=O [Orlistat],109,106
C[C@@H]1C/C=C/C=C/C=C/C=C/[C@H](O[C@@H]2O[C@H](C)[C@@H](O)[C@H](N)[C@@H]2O)C[C@@H]2O[C@](O)(C[C@@H](O)C[C@H]3O[C@@H]3/C=C/C(=O)O1)C[C@H](O)[C@H]2C(=O)O [Natamycin],104,101
